We go through 48 compounds from PubChem BioAssay AID1794844 (National Center for Advancing Translational Sciences (NCATS), 2023).

The chains behind the UniProt entries cited, without tags or fusion partners. Where a name states a change or a piece, a line headed by the entry shows the natural chain unless it says otherwise.
UniProt C7C422: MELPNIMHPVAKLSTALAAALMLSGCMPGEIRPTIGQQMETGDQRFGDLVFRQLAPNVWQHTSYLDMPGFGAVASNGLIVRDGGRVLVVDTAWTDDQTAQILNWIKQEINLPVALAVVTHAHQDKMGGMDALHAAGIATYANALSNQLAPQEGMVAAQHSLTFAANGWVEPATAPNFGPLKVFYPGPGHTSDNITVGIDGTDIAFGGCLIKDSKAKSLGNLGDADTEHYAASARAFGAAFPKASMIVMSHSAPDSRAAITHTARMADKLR

Fewer than 10 of roughly 2,800 compounds were called active. Inconclusive results (about 7%) are left out. The call rests on the fitted dose curve; in most records, active means well fitted inhibition curve with a large enough effect; inconclusive means small, poorly fitted or top-dose-only effect; inactive means no such curve, though single readings can be large or run the other way. The list shows a part of the results.
Potency means the concentration at half of the fitted maximal effect.

The target in this test is Metallo-beta-lactamase type 2 (Klebsiella pneumoniae) (UniProt C7C422). The test is described as follows: qHTS to identify inhibitors of the New Delhi Metallo-beta-lactamase (NDM): Nitrocefin screen against the machine-based learning selections. On activity, negative = inhibition: % of control where 0% means no effect. The conditions noted are these: NDM-1 enzyme, nitrocefin hydrolysis, absorbance 485 nm; activity, negative = inhibition: at the top concentration. The procedure, abridged: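 Hydrolysis by 2 nM NDM-1 was followed by absorbance after >30 min compound preincubation in HEPES pH 7.0 buffer with 1 uM Zn2SO4. For nitrocefin (16.7 uM, 15 min, 485 nm) and meropenem (50 uM, 30 min, 300 nm), each substrate ran on separate plates.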
On to `CCCCC(=O)Nc1ccc(C)cc1NC(=O)COc1cccnc1`, for which the “activity, negative = inhibition” value is inactive: 2.21%. With `COc1ccc(NC(=O)NCC2CCCN(C(C)C)C2)cc1OC` (stereo not drawn), the “activity, negative = inhibition” value is inactive: -0.609%.

With `O=C1CC(C(=O)O)C2(CCN(c3cc(C(=O)O)c4ccccc4n3)CC2)N1` (stereo not drawn), the “activity, negative = inhibition” value was inactive: 21.9%. Regarding `Cc1nc2c(C(=O)N3CCC(c4cc(CC(=O)O)[nH]n4)CC3)cccc2[nH]1`, the Potency is active: 8.42 µM. With `COC(=O)[C@@H]1Cc2ncn(C(C)C)c2CN1S(=O)(=O)c1ccc(F)cc1`, the “activity, negative = inhibition” value was inactive: -2.81% [at 57.5 µM].

In the case of `NC1(Cc2cc(CN3CCN(c4ccccc4)CC3)on2)COC1`, the “activity, negative = inhibition” value is inactive: 0.138% [at 57.5 µM]. Turning to `COc1ccc(-n2nc(C)c([C@@H]3C=C[C@@H](NS(=O)(=O)c4cccs4)C3)c2C)cc1`, the “activity, negative = inhibition” value was inactive: -1.36% [at 57.5 µM]. Turning to `c1ccc(CN2CCNc3cnc(Nc4ccc(N5CCOCC5)cc4)cc3C2)cc1`, the “activity, negative = inhibition” value was inactive: 4.37% [at 57.5 µM].

For `COc1cccc(-c2ccc(CN3CC4CCC(C3)N4c3ccc(C(F)(F)F)cc3)cc2)c1`, the “activity, negative = inhibition” value is inactive: 0.0666%. The same measure, in the same setting: then `Cc1ccn2c(C(=O)N3CCCC(c4[nH]ncc4-c4ccccc4)C3)nnc2n1` (stereo not drawn), with inactive: -2.87%; and `OC(c1cccc(C(F)(F)F)c1)c1nc(Nc2ccc(F)cc2F)n[nH]1` (stereo not drawn), with inactive: 6.01% [at 57.5 µM]; and `Cc1ccc(C(=O)N2CCN(c3nnc4cccc(C)n34)CC2)cc1F`, with inactive: -3.81%. In the case of `Cc1oc(C(O)c2cccc(O)c2)nc1C(=O)Nc1ccccc1` (stereo not drawn), the “activity, negative = inhibition” value is inactive: -5.53% [at 57.5 µM]. As to `Cc1oc(C(O)c2cccc(O)c2)nc1C(=O)NCc1ccccc1` (stereo not drawn), the “activity, negative = inhibition” value was inactive: 0.241% [at 57.5 µM]. On the same count and under the same terms, then `c1ccc(CCN2CCNc3cc(-c4cn[nH]c4)ncc3C2)cc1`, with inactive: -5.02% [at 57.5 µM]; and `c1cncc(Nc2cc3c(cn2)CN(Cc2c[nH]c4ccccc24)CCN3)c1`, with inactive: 1.96% [at 57.5 µM]. On the same count and under the same terms, under `O=C(N[C@H]1CO[C@H]2[C@@H]1OC[C@@H]2Nc1nccc(-c2cccc(F)c2)n1)c1ccccc1` stands inactive: -0.478% [at 57.5 µM]; under `OCC1CCCCN1CCNc1nccc(-c2cccnc2)n1` (stereo not drawn), inactive: 2.22%; under `OC(c1nc(Nc2ccc(Cl)cc2)n[nH]1)C1CC1` (stereo not drawn), inactive: -1.83% [at 76.7 µM]. As to `CC(C)N1C(=O)[C@@H]2[C@@H](CCN2C(=O)CCCC(=O)O)N(Cc2cccc(F)c2)C1=O`, the “activity, negative = inhibition” value was inactive: 8.66% [at 57.5 µM]. Same read-out and setting: under `O=c1cc2c(nn1Cc1cccc(Br)c1)CCCCC2` stands inactive: 2.9%.

For `Cc1ccccc1CN1C[C@H](O)C[C@H]1c1nc(-c2cccnc2)no1`, the “activity, negative = inhibition” value is inactive: -3.04% [at 57.5 µM]. `O=C(c1ccccc1F)N1CCCC2(C1)C(=NC1CCCC1)NC(=O)N2c1cc(F)cc(F)c1` (stereo not drawn): the “activity, negative = inhibition” value is inactive: 5.78%. Turning to `CC(=O)N1CCN([C@H]2[C@@H]3OC[C@@H](O3)[C@@H](NC(=O)Nc3cccc(C(F)(F)F)c3)[C@@H]2O)CC1`, the “activity, negative = inhibition” value is inactive: -0.772%. `COCCN1C[C@H]2CN(C(=O)C3CC3)CCN2C1=O`: the “activity, negative = inhibition” value is inactive: -4.99% [at 76.7 µM]. For `Oc1ccc(-c2cc3c(cn2)CN(Cc2ccccc2)CCN3)cc1F`, the “activity, negative = inhibition” value was inactive: -6.16% [at 57.5 µM]. Still for that read-out and setting: under `CC1=C[C@@H](CO)[C@H](C(C)C)C[C@H]1CC(=O)NCc1ccc(F)cc1` stands inactive: 248% [at 57.5 µM]; under `CCc1ccccc1NC(=O)Cn1ccn2nc(-c3ccc(F)cc3)c(CO)c2c1=O`, inactive: -5.76%. On the same count and under the same terms, under `COc1ccc(NC(=O)N2CCOC(c3ccc(Cl)cc3)C2)c(C)c1` (stereo not drawn) stands inactive: -0.195%; under `FC(F)(F)Oc1cccc(CN2CCNc3cc(Nc4cccnc4)ncc3C2)c1`, inactive: 0.502% [at 57.5 µM]. For the compound `Cc1ncsc1CN(Cc1ccccc1)C(=O)CCn1nnnc1CN1CCOCC1`, the “activity, negative = inhibition” value is inactive: 3.18%. `COc1ccc(-c2cc(-c3cccc(C(N)=O)c3)cn3cncc23)cc1`: the “activity, negative = inhibition” value is inactive: 14.3% [at 57.5 µM]. On the same count and under the same terms, then `CC(C)CC(=O)N1CCCC(Cc2nncn2C(C)C)C1` (stereo not drawn), with inactive: 14.5%; and `CCCN(CC1CCOC1)C(=O)c1cc(Cl)ccc1F` (stereo not drawn), with inactive: 2.67%. The same measure, in the same setting: under `OCc1cc2n(n1)CCCN(Cc1cccc(OCc3ccccn3)c1)C2` stands inactive: 1.29%; under `CN(CCO)CC1(O)CCCN(Cc2cccc(F)c2F)C1=O` (stereo not drawn), inactive: 25.3%; under `CN(C(=O)C1CCCC1)C1CCc2ccccc2C1` (stereo not drawn), inactive: -7% [at 57.5 µM]. On to `Cc1ccccc1-c1cnc2[nH]cc(CC(=O)NCc3cccnc3)c2c1`, for which the “activity, negative = inhibition” value was inactive: 7.66% [at 57.5 µM]. For the compound `CC(C)(C)C(=O)N1CCC2(CC1)OCC(C(=O)NC1CC1)N2C(=O)c1ccc(F)cc1` (stereo not drawn), the “activity, negative = inhibition” value is inactive: -0.943%.

Turning to `Cc1cccnc1C(=O)N[C@@H]1CN(C2CCOCC2)C[C@H]1CN(C)C`, the “activity, negative = inhibition” value was inactive: 0.378%. Same read-out and setting: under `OC[C@@H]1O[C@H](CNCc2ccc(F)cc2)[C@H](N2CCOCC2)[C@@H]1O` stands inactive: -6.76% [at 57.5 µM]; under `CC(C)C1c2nccn2CCCN1C(=O)CN1CCCC1=O` (stereo not drawn), inactive: -12.7%. On the same count and under the same terms, then `COc1ccccc1-c1[nH]nc2ncc(-c3cccc(O)c3)nc12`, with inactive: 19.1% [at 57.5 µM]; and `COCCNC(=O)C[C@@H]1C[C@@H](C(C)C)[C@H](CNC(=O)CCC(=O)O)C=C1C`, with inactive: -1.35% [at 57.5 µM]; and `O=C1[C@@H]2C[C@@H](CN2Cc2cnc3ccccc3c2)Oc2ccccc2N1Cc1ccccc1`, with inactive: -0.2%.

`O=C(NC[C@H]1O[C@@H](CC(=O)N2CCOCC2)[C@H](O)[C@@H]1O)Nc1ccc(F)cc1F`: the “activity, negative = inhibition” value was inactive: 20.5% [at 57.5 µM]. With `CCn1c(C)cc(C)c(C(=O)NCC2CCN(c3cnn(C)c(=O)c3)C2)c1=O` (stereo not drawn), the “activity, negative = inhibition” value is inactive: 0.157%. Same read-out and setting: then `COc1ccc(-c2ccc3c(c2)C(=O)N2CC[C@H](NC(=O)NC4CCCCC4)[C@H]2C(=O)N3)cc1`, with inactive: -2.65%.
